This note sets out measurements from PMC3828377.

By UniProt entry, the sequences of proteins in these tests, tags left out.
UniProt Q09196: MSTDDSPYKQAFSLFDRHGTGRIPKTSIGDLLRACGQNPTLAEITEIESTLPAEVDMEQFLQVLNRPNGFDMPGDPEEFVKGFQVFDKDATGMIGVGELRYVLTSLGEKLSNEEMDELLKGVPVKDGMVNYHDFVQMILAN
UniProt Q9USI6: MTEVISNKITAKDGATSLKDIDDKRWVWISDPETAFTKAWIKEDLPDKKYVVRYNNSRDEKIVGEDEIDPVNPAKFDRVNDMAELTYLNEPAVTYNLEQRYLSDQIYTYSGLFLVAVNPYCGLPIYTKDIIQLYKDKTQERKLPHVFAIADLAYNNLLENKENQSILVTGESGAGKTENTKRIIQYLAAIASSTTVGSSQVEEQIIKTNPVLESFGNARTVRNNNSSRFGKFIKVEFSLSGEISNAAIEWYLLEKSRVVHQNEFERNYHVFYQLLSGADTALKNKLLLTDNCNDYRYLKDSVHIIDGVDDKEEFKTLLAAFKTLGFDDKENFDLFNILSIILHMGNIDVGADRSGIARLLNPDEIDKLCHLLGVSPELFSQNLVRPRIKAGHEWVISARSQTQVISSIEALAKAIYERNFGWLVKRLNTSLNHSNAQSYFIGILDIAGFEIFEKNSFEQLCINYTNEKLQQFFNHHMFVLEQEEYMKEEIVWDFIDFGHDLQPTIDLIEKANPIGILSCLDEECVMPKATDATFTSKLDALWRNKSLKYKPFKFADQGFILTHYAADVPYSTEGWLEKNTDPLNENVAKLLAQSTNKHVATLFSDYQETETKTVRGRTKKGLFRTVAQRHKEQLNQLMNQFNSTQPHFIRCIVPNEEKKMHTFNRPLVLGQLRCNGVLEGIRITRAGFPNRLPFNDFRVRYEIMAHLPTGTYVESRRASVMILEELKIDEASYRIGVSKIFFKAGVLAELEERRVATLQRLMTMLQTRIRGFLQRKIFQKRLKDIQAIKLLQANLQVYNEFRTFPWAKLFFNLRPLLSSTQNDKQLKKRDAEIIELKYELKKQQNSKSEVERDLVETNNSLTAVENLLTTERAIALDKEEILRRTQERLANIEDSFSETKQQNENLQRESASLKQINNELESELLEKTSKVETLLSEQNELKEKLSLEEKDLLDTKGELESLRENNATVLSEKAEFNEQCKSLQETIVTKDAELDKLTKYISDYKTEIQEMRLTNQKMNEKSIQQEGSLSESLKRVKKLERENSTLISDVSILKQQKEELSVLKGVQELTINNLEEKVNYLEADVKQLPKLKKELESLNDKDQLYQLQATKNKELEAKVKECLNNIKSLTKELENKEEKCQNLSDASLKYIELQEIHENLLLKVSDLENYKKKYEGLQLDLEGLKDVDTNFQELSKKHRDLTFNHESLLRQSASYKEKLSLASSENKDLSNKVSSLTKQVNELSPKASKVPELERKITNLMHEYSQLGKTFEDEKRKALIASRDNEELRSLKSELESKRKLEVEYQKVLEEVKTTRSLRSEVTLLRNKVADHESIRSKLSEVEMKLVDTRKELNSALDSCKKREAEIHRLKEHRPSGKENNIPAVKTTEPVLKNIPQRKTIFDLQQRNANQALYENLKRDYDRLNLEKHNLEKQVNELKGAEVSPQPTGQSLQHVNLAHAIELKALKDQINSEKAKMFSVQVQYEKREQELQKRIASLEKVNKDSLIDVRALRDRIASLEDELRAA

Results are given in words; binding and its absence hold for the method and conditions named. Binding seen in cells or lysates may run through a third protein. Some results given as binding are weak or reduced against the parent protein; the word gives no strength. For some assays here: Sequences can lack the tags named with a protein.

Assay [1] addresses T1, GST-tagged Rlc1p (Myo2p light chain) (S. pombe) (UniProt Q9UUG5).
T1 sequence: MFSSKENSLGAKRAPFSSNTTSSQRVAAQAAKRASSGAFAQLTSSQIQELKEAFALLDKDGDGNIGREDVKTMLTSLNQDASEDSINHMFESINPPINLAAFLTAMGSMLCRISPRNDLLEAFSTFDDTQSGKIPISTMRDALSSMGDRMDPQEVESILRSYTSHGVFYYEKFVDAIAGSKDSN
Put plainly: pull-down; Myo2p heavy chain and GST-tagged light chains over-expressed together in S. pombe (wild-type or rng3-65 cells, 25°C or 37°C); one-step purification via the GST-tagged light chains; Myo2p heavy chain detected by anti-Myo2p Western blot. On the technique in general: Immunoblotting shows a protein as a band on a membrane.

Assay [2] has as its target GST-tagged Cdc4p (Myo2p light chain) (S. pombe) (UniProt Q09196). The description is as above.

As to “Myo2p heavy chain, full-length (from UniProt Q9USI6 1-1526)”, the binding entry in assay [1] and in assay [2] was “binds” in each case.
